Assay results reported in patent publication US20150209335A1, “METHODS AND SMALL MOLECULE THERAPEUTICS COMPRISING FUSED ELPS” (UNIVERSITY OF SOUTHERN CALIFORNIA, priority 2012, published 2015).
Some of these results come from one statement about several compounds together.

System: MDA-MB-231 rapamycin insensitive breast cancer cell line
Experiment: MTS cell viability assay, MDA-MB-231
Format: cell-based
Conditions: MDA-MB-231, even at very high rapamycin concentrations

CO[C@H]1C[C@@H]2CC[C@@H](C)[C@@](O)(O2)C(=O)C(=O)N2CCCC[C@H]2C(=O)O[C@H]([C@H](C)C[C@@H]2CC[C@@H](O)[C@H](OC)C2)CC(=O)[C@H](C)/C=C(\C)[C@@H](O)[C@@H](OC)C(=O)[C@H](C)C[C@H](C)/C=C/C=C/C=C/1C [rapamycin, (3S,6R,7E,9R,10R,12R,14S,15E,17E,19E,21S,23S,26R,27R,34aS)-9,10,12,13,14,21,22,23,24,25,26,27,32,33,34,34a-hexadecahydro-9,27-dihydroxy-3-[(1R)-2-[(1S,3R,4R)-4-hydroxy-3-methoxycyclohexyl]-1-methylethyl]-10,21-dimethoxy-6,8,12,14,20,26-hexamethyl-23,27-epoxy-3H-pyrido[2,1-c][1,4]-oxaazacyclohentriacontine-1,5,11,28,29 (4H,6H,31H)-pentone]
cell killing: ≤ 50%
